These results are taken from article PMC12046003.

Protein sequences, listed by entry. Tags and fused reporters are not part of them.
UniProt P06803: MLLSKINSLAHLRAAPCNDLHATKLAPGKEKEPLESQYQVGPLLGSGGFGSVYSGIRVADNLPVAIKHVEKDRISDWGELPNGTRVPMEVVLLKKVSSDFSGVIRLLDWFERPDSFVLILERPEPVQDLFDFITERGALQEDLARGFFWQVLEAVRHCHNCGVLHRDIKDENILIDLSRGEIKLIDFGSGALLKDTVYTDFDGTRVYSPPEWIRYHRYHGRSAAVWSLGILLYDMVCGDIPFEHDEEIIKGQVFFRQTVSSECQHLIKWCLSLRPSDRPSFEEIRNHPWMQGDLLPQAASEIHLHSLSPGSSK
UniProt P31749: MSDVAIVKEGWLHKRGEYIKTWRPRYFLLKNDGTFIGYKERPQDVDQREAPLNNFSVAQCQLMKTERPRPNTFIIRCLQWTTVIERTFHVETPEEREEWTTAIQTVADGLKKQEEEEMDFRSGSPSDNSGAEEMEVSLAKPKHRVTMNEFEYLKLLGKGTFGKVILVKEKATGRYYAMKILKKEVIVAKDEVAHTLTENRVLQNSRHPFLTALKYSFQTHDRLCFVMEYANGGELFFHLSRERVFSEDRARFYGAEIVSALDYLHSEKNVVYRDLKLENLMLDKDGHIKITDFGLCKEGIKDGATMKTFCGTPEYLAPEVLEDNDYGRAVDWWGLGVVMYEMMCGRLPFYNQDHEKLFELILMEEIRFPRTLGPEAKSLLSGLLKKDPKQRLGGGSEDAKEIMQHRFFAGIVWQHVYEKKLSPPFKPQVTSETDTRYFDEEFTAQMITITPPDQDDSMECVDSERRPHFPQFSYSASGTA

These are yes or no findings as the source states them, for the method shown. Binding seen in cells or lysates may run through a third protein. Some results given as binding are weak or reduced against the parent protein; the word gives no strength. Sequences can lack the tags named with a protein.

Holding throughout (assay): co-IP; HEK 293T cells transfected 36 h with the indicated plasmids, lysed in RIPA buffer; immunoprecipitation with anti-Flag antibody overnight at 4 °C, protein G or A Sepharose; immunoblot
For assay [1], the target named is T1, Flag-tagged TRAF6 coiled-coil TRAF-N domain and TRAF-C domain (amino acids 289-530) (mouse) (UniProt P70196).
T1 sequence: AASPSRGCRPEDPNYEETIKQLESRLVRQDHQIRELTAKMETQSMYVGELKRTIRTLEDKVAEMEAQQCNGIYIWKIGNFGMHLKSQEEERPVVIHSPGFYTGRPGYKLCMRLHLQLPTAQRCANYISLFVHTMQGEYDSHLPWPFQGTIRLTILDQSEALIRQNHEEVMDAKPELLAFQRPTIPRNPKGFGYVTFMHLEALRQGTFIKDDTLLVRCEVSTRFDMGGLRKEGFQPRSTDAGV

For assay [2], the target named is T2, Flag-tagged TRAF6 N-terminal ring and zinc-finger domains (amino acids 1-289) (mouse) (UniProt P70196).
T2 sequence: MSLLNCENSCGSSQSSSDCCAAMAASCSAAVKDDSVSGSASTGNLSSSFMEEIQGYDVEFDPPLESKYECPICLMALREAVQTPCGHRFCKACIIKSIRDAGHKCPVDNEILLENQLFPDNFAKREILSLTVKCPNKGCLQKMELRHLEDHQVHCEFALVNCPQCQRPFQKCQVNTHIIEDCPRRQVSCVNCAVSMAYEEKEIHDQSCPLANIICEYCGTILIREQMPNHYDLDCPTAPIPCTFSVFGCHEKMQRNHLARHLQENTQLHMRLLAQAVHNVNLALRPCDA

Assay [3] has as its target T3, Flag-tagged full-length TRAF6 (mouse) (UniProt P70196).
T3 sequence: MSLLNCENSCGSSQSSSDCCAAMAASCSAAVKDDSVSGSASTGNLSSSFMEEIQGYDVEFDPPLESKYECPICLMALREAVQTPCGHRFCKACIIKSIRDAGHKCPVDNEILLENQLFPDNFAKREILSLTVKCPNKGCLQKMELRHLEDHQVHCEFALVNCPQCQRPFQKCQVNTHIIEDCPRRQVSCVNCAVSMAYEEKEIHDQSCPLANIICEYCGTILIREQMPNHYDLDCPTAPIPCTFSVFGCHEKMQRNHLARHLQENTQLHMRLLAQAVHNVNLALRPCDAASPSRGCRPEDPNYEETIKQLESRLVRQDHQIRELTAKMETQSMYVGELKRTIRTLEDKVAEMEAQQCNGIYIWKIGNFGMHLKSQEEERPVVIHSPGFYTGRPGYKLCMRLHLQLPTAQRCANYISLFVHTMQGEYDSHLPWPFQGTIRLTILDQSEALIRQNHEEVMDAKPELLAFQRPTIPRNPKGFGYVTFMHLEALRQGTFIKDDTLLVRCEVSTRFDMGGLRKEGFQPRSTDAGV

“HA-tagged murine Pim1 (from UniProt P06803 1-313) (enzyme)”: the binding result is “binds” in assay [1], “no binding” in assay [2] and “binds” in assay [3].
Take “Myc-tagged AKT1 (from UniProt P31749 1-480) (enzyme)”: the binding entry in assay [3] is on record as “binds”.
